Test results taken from patent US10520504B2, “Fluorescent polybranched probes for detecting bacteria and/or fungi in vitro and in vivo” (priority 2014, dated 2019).
Entries after “also recorded” stand apart in the source; their conditions may differ. Part of at least one peptide drawing is inferred or uncertain, most often the ends. Some entries share one result that the patent states for a list of compounds. Numbered stars: 1 amine (or outer) side, 2 acyl side, 3 side chain; on linkers, the order of the positions; unused ones are H or OH. Bridge positions count the residues as written; N and C are the ends. Square brackets hold non-standard residues; d marks the D form. Peptide text beside a SMILES is read from it. I, II: the chains in the order shown. * marks the point of attachment. X1 = NC(=O)NC(COCCCN[*:1])(COCCCN[*:2])COCCCN[*:3]; NBD = O=[N+]([O-])c1ccc(*)c2nonc12; Nle = CCCC[C@H](N)C(=O)O; AEEA = NCCOCCOCC(=O)O; Ahx = NCCCCCC(=O)O

Key:
[1] = system: bacteria instilled into ovine lung segments; test: Ex vivo ovine lung model of bacterial infection imaged by FCFM; conditions: for in situ labelling of bacteria in the ovine lung (FCFM): bacteria instilled, then probe instilled; for FCFM detection of pre-labelled bacteria instilled into ovine lung: bacteria pre-labelled with probe before instillation
MSSA, PA3284 = test: Confocal imaging of labelled bacteria in ovine lavage; type: cell-based; conditions: NBD-UBINle 15 μM, NBD-UBIdend 5 μM on MSSA; NBD-PMX 1 μM on PA3284
human neutrophils = test: Confocal labelling of isolated human neutrophils; type: cell-based; conditions: co-incubated with bacteria
[2] = system: panel of bacteria (Gram-negative and Gram-positive VAP causing pathogens); test: Confocal microscopy labelling of bacteria in vitro; type: cell-based; conditions: for signal-to-noise on live benchtop confocal microscopy: NBD construct compared with fluorescein (FAM) construct; for labelling of bacteria (confocal): in vitro, in presence of probe
[3] = system: bacteria in the presence of human lung tissue; test: Bacteria detection on human lung tissue (FCFM, confocal, FLIM); conditions: S. aureus
[4] = system: bacteria versus lung surfactant constituents; test: Bacterial labelling in presence of lung surfactant constituents; type: cell-based
C. albicans = test: Fungal labelling, C. albicans (confocal, FCFM); type: cell-based, Candida albicans
[5] = system: A549 cells (human lung epithelial cells); test: Confocal labelling of A549 cells; type: cell-based; conditions: co-incubated with bacteria
panel of bacteria [6] = test: Flow cytometry of bacterial labelling; type: cell-based
A. fumigatus hyphae = test: Fungal labelling, A. fumigatus (confocal, FCFM); type: cell-based, Aspergillus fumigatus
Erythrocytes = test: Haemolysis assay; type: cell-based, human; conditions: 1 h at 37° C.; 0.2% Triton-X = 100% haemolysis
panel of bacteria [7] = test: Retention of labelling upon wash-off (confocal, PBS wash); type: cell-based; conditions: removal of probe solution

CCCC[C@H](NC(=O)[C@H](CCCNC(=N)N)NC(=O)[C@H](CCCNC(=N)N)NC(=O)[C@H](CCCCN)NC(=O)[C@H](C)NC(=O)[C@H](CCCNC(=N)N)NC(=O)CNC(=O)[C@@H](NC(=O)CCCCCNc1ccc([N+](=O)[O-])c2nonc12)[C@@H](C)O)C(=O)N[C@@H](CCC(N)=O)C(=O)N[C@@H](Cc1ccc(O)cc1)C(=O)N[C@@H](CC(N)=O)C(=O)N[C@@H](CCCNC(=N)N)C(=O)N[C@@H](CCCNC(=N)N)C(N)=O [NBD-UBINle] ({NBD-Ahx}-TGRAKRR[Nle]QYNRR-NH2; N-terminus and C-terminus assumed)
in situ labelling of bacteria in the ovine lung (FCFM) [1]: fails to label bacteria; also recorded: could not label bacteria in situ | FCFM detection of pre-labelled bacteria instilled into ovine lung [1]: undetectable by FCFM | fluorescence intensity on bacteria in ovine lavage (MSSA, PA3284): reduced fluorescence in ovine lavage | labelling of human neutrophils (human neutrophils): not labelled | labelling of human neutrophils (human neutrophils; listed as NBD-UBI): specificity for bacteria | signal-to-noise on live benchtop confocal microscopy [2]: improved signal-to-noise | signal-to-noise on live benchtop confocal microscopy ([2]; listed as NBD-UBI): improved signal to noise ratio | labelling of bacteria (confocal) [2]: bacteria were labelled | labelling of bacteria (confocal) ([2]; listed as NBD-UBI): the majority of bacteria to be detected

I: {NBD-AEEA}-TGRAKRR[Nle]QYNRR[AEEA] / II: {NBD-AEEA}-TGRAKRR[Nle]QYNRR[AEEA] / III: {NBD-AEEA}-TGRAKRR[Nle]QYNRR[AEEA] (linker I:C-II:C-III:C via X1) [NBD-UBIdend]
fluorescence lifetime imaging (FLIM) of bacteria on human lung tissue [3]: dear differences in imaging of lung tissue and bacteria | selectivity for bacteria over lung surfactant constituents [4]: selectivity for bacterial labelling over lung surfactant constituents | bacterial:surfactant fluorescence intensity compared with linear NBD-UBINle ([4]; equimolar NBD concentrations): significantly higher bacterial: surfactant intensity; also recorded: significantly improved bacterial selectivity over linear NBD-UBINle | labelling of C. albicans suspensions (FCFM) (C. albicans): no labeling | labelling of C. albicans (confocal) (C. albicans; 5 μM): no labelling | automated image processing of FCFM videos ([1]; 80 spots per frame threshold, LoG and DoG): unequivocal detection of bacteria | in situ labelling of bacteria in the ovine lung (FCFM) [1]: detects bacteria in situ; also recorded: ability to label bacteria in situ; also recorded: able to image bacteria in the lung | FCFM detection of pre-labelled bacteria instilled into ovine lung [1]: readily visualised; also recorded: the bacteria were successfully imaged | detection of bacteria in agarose beads in situ ([1]; beads with bacteria instilled into the lung): a signal is seen | signal in PBS control segments ([1]; no bacteria): minimal/no signal | fluorescence intensity on bacteria in ovine lavage (MSSA, PA3284): reduced fluorescence in ovine lavage; also recorded: higher fluorescence intensity | labelling of A549 cells [5]: did not label | bacterial labelling on flow cytometry (panel of bacteria [6]): increased labelling over linear NBD-UBINle | fluorescence of A. fumigatus imaged with FCFM (A. fumigatus hyphae): distinct pattern | fluorescence of A. fumigatus in the presence of ovine lung tissue (FCFM) (A. fumigatus hyphae): linear pattern of fluorescence | labelling of A. fumigatus hyphae (confocal) (A. fumigatus hyphae; 5 μM): variable labelling | labelling of human neutrophils (human neutrophils): did not label | concentration up to which no red cell haemolysis (Erythrocytes): up to 100 μM | bacterial labelling intensity compared with linear NBD-UBINle ([2]; NBD-UBIdend 5 μM, bacterial panel vs MSSA with linear probe): all bacteria were brighter than MSSA labelled with linear NBD-UBINle; also recorded: increased bacterial signal at equimolar concentrations | labelling of bacteria (confocal) [2]: Labelling was observed with variable intensity | retention of labelling upon wash-off (panel of bacteria [7]): retain labelling; also recorded: retained labelling upon wash-off
